Experimental data from article PMC9200640.
No constants are given. Whether binding was seen depends on the method and setting. Some binding calls cover weakened binding; strength is not graded here.

Molecular target: T1, bS6m (mitoribosomal small subunit protein) (mouse (endogenous in NS0)) (UniProt P58064)
T1 sequence: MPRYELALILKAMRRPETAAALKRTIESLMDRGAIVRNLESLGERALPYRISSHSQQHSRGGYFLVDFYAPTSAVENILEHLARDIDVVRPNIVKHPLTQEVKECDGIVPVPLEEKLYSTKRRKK
Assay: cryo-EM structure; pre-SSU-1 (3.2 Å), native SSU assembly intermediate from mitochondria of Trmt2b-knockout NS0 mouse cells, sucrose gradient fractions

binding: binds
B1: RBFA (mouse mitochondrial ribosome-binding factor A) (protein, UniProt Q6P3B9 42-350)
chain: GSKNLLKKFASKTRKKFWYEGPSLGSHLTPRPSKHEFLTKTTSKKTRKEDSIRLRVLNGLLYKSLTELLCTPQVSQEVYDLNVELSKVSVTSDFSACRVYWKTGVSAEQNKHTESVLQRSAAYMRHLLISQQTLRNVPPIVFVQDKRDLVLAEVDRLLAEADFGPPDERDDLDGLRNADAQVPHDSPEPAAHPNLCGIDHEALNKQIMEYKRKKERGLQCQSLAPPSGREQAPEPTRLLRKREKVRSRWQHRDASPRSFLLGEEDEDEDSSTEWECHAHEAEDDDDHQEEELGADRGAQRGLCGKREQG
